# Experimental data published in article doi:10.1101/2024.05.31.596839.
# Changes are numbered by the printed parent chain. These are yes or no findings as the source states them, for the method shown. Some entries that bind do so weakly or less than the wild type.
# T1: BoYb (Drosophila) (UniProt Q9VNP5)
# T1 sequence: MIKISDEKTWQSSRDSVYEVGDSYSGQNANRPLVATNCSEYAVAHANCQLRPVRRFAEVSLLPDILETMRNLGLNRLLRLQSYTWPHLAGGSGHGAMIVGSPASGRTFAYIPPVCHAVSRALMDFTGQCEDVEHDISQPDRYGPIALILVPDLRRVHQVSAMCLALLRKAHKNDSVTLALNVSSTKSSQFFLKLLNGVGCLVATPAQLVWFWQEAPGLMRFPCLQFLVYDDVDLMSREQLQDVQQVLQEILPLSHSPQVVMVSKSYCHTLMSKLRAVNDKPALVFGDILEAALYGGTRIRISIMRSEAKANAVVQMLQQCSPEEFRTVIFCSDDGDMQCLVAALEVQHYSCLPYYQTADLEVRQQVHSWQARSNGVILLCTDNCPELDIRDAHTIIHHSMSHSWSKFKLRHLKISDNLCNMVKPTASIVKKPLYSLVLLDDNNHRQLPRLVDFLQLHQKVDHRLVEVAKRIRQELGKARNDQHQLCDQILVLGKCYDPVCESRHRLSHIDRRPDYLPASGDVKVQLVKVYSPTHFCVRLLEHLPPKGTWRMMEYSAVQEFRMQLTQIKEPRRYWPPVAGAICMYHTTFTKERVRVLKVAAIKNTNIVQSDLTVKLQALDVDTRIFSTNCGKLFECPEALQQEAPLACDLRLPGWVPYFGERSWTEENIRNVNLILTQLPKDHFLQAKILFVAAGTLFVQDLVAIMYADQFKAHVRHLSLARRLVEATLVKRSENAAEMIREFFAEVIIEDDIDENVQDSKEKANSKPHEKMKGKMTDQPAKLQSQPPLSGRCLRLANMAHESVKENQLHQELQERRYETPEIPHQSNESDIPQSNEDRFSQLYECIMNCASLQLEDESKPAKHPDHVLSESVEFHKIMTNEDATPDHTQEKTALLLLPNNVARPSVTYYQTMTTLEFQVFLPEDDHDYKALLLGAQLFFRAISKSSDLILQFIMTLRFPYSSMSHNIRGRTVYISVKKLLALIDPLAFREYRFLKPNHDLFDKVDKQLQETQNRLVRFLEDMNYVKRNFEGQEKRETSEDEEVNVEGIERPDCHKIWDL
# T2: Krimper (Drosophila) (UniProt A1ZAC4)
# T2 sequence: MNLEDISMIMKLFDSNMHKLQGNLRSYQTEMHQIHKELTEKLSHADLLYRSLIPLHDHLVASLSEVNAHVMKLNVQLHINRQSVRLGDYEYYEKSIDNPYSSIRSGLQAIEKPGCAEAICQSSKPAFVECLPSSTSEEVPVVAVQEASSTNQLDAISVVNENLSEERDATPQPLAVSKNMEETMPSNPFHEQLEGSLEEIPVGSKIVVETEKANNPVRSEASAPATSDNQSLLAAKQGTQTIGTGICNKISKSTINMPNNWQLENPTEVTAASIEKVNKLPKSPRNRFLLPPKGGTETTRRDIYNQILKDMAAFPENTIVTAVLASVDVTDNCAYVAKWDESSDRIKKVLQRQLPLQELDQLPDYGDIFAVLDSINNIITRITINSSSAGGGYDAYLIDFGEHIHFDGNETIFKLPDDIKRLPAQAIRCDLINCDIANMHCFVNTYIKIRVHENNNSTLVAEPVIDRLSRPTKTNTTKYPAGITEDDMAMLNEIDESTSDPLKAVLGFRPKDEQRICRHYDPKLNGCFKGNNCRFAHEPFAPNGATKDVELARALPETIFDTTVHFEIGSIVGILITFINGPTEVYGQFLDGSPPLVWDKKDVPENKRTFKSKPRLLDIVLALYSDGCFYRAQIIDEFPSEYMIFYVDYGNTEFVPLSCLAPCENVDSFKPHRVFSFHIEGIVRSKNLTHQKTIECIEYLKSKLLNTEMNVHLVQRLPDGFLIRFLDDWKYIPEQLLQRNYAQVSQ
# B1: Vreteno RRM_MUT (full-length) (protein, UniProt Q9VCU7 1-691)
# chain: MESESSQDDWSAFDPMSREYYDQVGNRYTNESGQKLIMEAPLPPKDEKEQRATRQAKYPYLVVPKSSPEVTEKELINFFGRALIKEMEFRRLSRVYFVYFENIASLETAQQRVQREPNLIKCITGRPQKEREITSDPVTSTEPMPTPGPAISATERTPVNHNREVPISTGGQNHPEFFRPPLVTKDDYKRGSLLATNDPIQRYLNVKYEFALERHDIYKLKDETRIPQVVLHFRSGRTIPLSTVAVTEEDKTKSLLEDGVSKCVVCQNWTDTFCKLCKMPFCNASCFADVAEQHKQACGKGEILNLDEKVGRKYPKPGLPPSGSKVRITAFEQTNVVYVRSADIQIDIAYYTVLTEVMMLGKDASKLQSTPVCGQIVLYKFEGHMSRAMVLNVDNIKEIYVVFIDFGSVEVTQLERLYECSSYLAGLTCYPVAVKLRGVPRRFVGPNIREVMYELDQSLVFNIKYSSREYDTSKGMQVVVMTEIDINRSLNRLFKTILTPVEPSVSDLGYKEDCLPYIPLHCGKNINVVVMDNTFIQCGFIYCTSIDLAYEVTKMQRDIQEYGEKIAKCATYAPPINELCIAKYEGKWRRGLSVELVGDGYPSILFIDYGNIVPTHVTDIRPYPPQFIFPIMTTQLDLIGVPEKPTDEQIKWLDKNYPIGSVITCSEITFDEETNSYSTRIEKLQEFLSLD
# B2: Vreteno eTud1_MUT (full-length) (protein, UniProt Q9VCU7 1-691)
# chain: B1 chain with E69Y, E74M, E116Y, Y351E, M358E
# B3: Vret-N RRM_MUT (domain or fragment, UniProt Q9VCU7 1-178)
# chain: MESESSQDDWSAFDPMSREYYDQVGNRYTNESGQKLIMEAPLPPKDEKEQRATRQAKYPYLVVPKSSPEVTEKELINFFGRALIKEMEFRRLSRVYFVYFENIASLETAQQRVQREPNLIKCITGRPQKEREITSDPVTSTEPMPTPGPAISATERTPVNHNREVPISTGGQNHPEFF
# B4: Vret-C eTud1_MUT (domain or fragment, UniProt Q9VCU7 178-691)
# chain: FRPPLVTKDDYKRGSLLATNDPIQRYLNVKYEFALERHDIYKLKDETRIPQVVLHFRSGRTIPLSTVAVTEEDKTKSLLEDGVSKCVVCQNWTDTFCKLCKMPFCNASCFADVAEQHKQACGKGEILNLDEKVGRKYPKPGLPPSGSKVRITAFEQTNVVYVRSADIQIDIAYETVLTEVEMLGKDASKLQSTPVCGQIVLYKFEGHMSRAMVLNVDNIKEIYVVFIDFGSVEVTQLERLYECSSYLAGLTCYPVAVKLRGVPRRFVGPNIREVMYELDQSLVFNIKYSSREYDTSKGMQVVVMTEIDINRSLNRLFKTILTPVEPSVSDLGYKEDCLPYIPLHCGKNINVVVMDNTFIQCGFIYCTSIDLAYEVTKMQRDIQEYGEKIAKCATYAPPINELCIAKYEGKWRRGLSVELVGDGYPSILFIDYGNIVPTHVTDIRPYPPQFIFPIMTTQLDLIGVPEKPTDEQIKWLDKNYPIGSVITCSEITFDEETNSYSTRIEKLQEFLSLD
# B5: Vreteno RRM_MUT and eTud1_MUT (full-length) (protein, UniProt Q9VCU7 1-691)
# chain: B1 chain with Y351E, M358E
# B6: Ago3_4RK (protein, UniProt Q7PLK0 1-867)
# chain: MSGKGNLLSLFNKNAGNMGKSISSKDHEIDSGLDFNNSESSGERLLSSHNIETDLITTLQHVNISVGKGKAKLIDTLKTDDHTSNQFITSESKENITKKTKGPESEAIASENGLFFPDLIYGSKGSSVNIYCNYLKLTTDESKGVFNYEVRFFPPIDSVHLRIKYLNDHKDKLGGTKTFDGNTLYLPILLPNKMTVFISKAEDVELQIRILYKKKEEMRNCTQLYNILFDRVMKVLNYVKFDRKQFDPSRPKIIPLAKLEVWPGYVTAVDEYKGGLMLCCDVSHRILCQKTVLEMLVDLYQQNVEHYQESARKMLVGNIVLTRYNNRTYKINDICFDQNPTCQFEIKTGCTSYVEYYKQYHNINIKDVNQPLIYSIKKSRGIPAERENLQFCLIPELCYLTGLRDEVRSDNKLMREIATFTRVSPNQRQMALNKFYENVSNTPAAQEILNSWGLSLTNNSNKISGRQMDIEQIYFSKISVSAGRSAEFSKHAVTNEMLKVVHLSKWIIIHLRNYRQAATSLLDNMKQACESLGMNISNPTMISLDHDRIDAYIQALRRNITMNTQMVVCICHNRRDDRYAAIKKICCSEIPIPSQVINAKTLQNDLKIRSVVQKIVLQMNCKLGGSLWTVKIPFKNVMICGIDSYHDPSNRGNSVAAFVASINSSYSQWYSKAVVQTKREEIVNGLSASFEIALKMYRKRNGKLPTNIIIYRDGIGDGQLYTCLNYEIPQFEMVCGNRIKISYIVVQKRINTRIFSGSGIHLENPLPGTVVDQHITKSNMYDFFLVSQLVRQGTVTPTHYVVLRDDCNYGPDIIQKLSYKLCFLYYNWAGTVRIPACCMYAHKLAYLIGQSIQRDVAEALSEKLFYL
# B7: Ago3Δ1-100 (domain or fragment, UniProt Q7PLK0 101-867)
# chain: KGPESEAIASENGLFFPDLIYGSKGSSVNIYCNYLKLTTDESKGVFNYEVRFFPPIDSVHLRIKYLNDHKDKLGGTKTFDGNTLYLPILLPNKMTVFISKAEDVELQIRILYKKKEEMRNCTQLYNILFDRVMKVLNYVKFDRKQFDPSRPKIIPLAKLEVWPGYVTAVDEYKGGLMLCCDVSHRILCQKTVLEMLVDLYQQNVEHYQESARKMLVGNIVLTRYNNRTYKINDICFDQNPTCQFEIKTGCTSYVEYYKQYHNINIKDVNQPLIYSIKKSRGIPAERENLQFCLIPELCYLTGLRDEVRSDNKLMREIATFTRVSPNQRQMALNKFYENVSNTPAAQEILNSWGLSLTNNSNKISGRQMDIEQIYFSKISVSAGRSAEFSKHAVTNEMLKVVHLSKWIIIHLRNYRQAATSLLDNMKQACESLGMNISNPTMISLDHDRIDAYIQALRRNITMNTQMVVCICHNRRDDRYAAIKKICCSEIPIPSQVINAKTLQNDLKIRSVVQKIVLQMNCKLGGSLWTVKIPFKNVMICGIDSYHDPSNRGNSVAAFVASINSSYSQWYSKAVVQTKREEIVNGLSASFEIALKMYRKRNGKLPTNIIIYRDGIGDGQLYTCLNYEIPQFEMVCGNRIKISYIVVQKRINTRIFSGSGIHLENPLPGTVVDQHITKSNMYDFFLVSQLVRQGTVTPTHYVVLRDDCNYGPDIIQKLSYKLCFLYYNWAGTVRIPACCMYAHKLAYLIGQSIQRDVAEALSEKLFYL
# Biological target: T1, BoYb (Drosophila)
# Assay: ReLo
row,Binder,binding
1,B1,binds
2,B2,binds
3,B3,no binding
4,B4,no binding
5,B5,no binding

# Biological target: T2, Krimper (Drosophila)
# Assay: ReLo
row,Binder,binding
1,B6,binds
2,B7,no binding
